Laboratory results: article PMC11111408, “Concurrent inhibition of oncogenic and wild-type RAS-GTP for cancer therapy” (Nature, 2024)
This continues a long series; more values of the same kind are listed elsewhere.

System: PRISM DNA-barcoded human tumour cell lines
Experiment: PRISM pooled cell viability assay;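 further: 8 threefold dilutions from 10 µM with 5 days of exposure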
Assay type: cell-based
Design: Area under the curve (AUC): scale not given here
Details: for PRISM AUC: KRAS MUT
Experimental: Cells were then lysed in TCL mRNA lysis buffer, and then PCR with reverse transcription was performed. Detection of the barcodes and univariate and multivariate analysis was then performed as previously described. Data analysis is described in the Supplementary Methods. Up-to-date code for our analysis is at the github link: https://github.com/cmap/dockerized_mts.
For every gene with non-silent mutations in at least four cell-lines, we compared the AUC values between cells with and without those mutations using a t-test. This analysis was carried out for: (i) the full dataset; (ii) excluding cell lines with non-silent KRAS mutations; and (iii) excluding cell lines that have either KRAS or NRAS non-silent mutations.

## CCn1c(-c2cc(N3CCN(C4CC4)CC3)cnc2[C@H](C)OC)c2c3cc(ccc31)-c1csc(n1)C[C@H](NC(=O)[C@H]1[C@@H]3COC[C@@H]31)C(=O)N1CCC[C@H](N1)C(=O)OCC(C)(C)C2 [RMC-7977]
SKNDZ_AUTONOMIC_GANGLIA
  Area under the curve (AUC): 0.8385
SKNEP1_BONE
  Area under the curve (AUC): 0.8198
SKNFI_AUTONOMIC_GANGLIA
  Area under the curve (AUC): 0.8251
SKNMC_BONE
  Area under the curve (AUC): 0.8161
SKNO1_HAEMATOPOIETIC_AND_LYMPHOID_TISSUE
  Area under the curve (AUC): 0.6183
SKN_ENDOMETRIUM
  Area under the curve (AUC): 0.6569
SKOV3_OVARY
  Area under the curve (AUC): 0.8776
SKPNDW_BONE
  Area under the curve (AUC): 0.7673
SKUT1_SOFT_TISSUE
  Area under the curve (AUC): 0.8815
SMSCTR_SOFT_TISSUE
  Area under the curve (AUC): 0.4961
SNB75_CENTRAL_NERVOUS_SYSTEM
  Area under the curve (AUC): 0.694
SNGM_ENDOMETRIUM
  Area under the curve (AUC): 0.6851
SNU1_STOMACH
  Area under the curve (AUC): 0.5767
SNU46_UPPER_AERODIGESTIVE_TRACT
  Area under the curve (AUC): 0.6553
SNU61_LARGE_INTESTINE
  Area under the curve (AUC): 0.3873
SNU81_LARGE_INTESTINE
  Area under the curve (AUC): 0.7559
  PRISM AUC: 0.6432
SNU119_OVARY
  Area under the curve (AUC): 0.739
SNU182_LIVER
  Area under the curve (AUC): 1
SNU201_CENTRAL_NERVOUS_SYSTEM
  Area under the curve (AUC): 0.8331
SNU213_PANCREAS
  Area under the curve (AUC): 0.3984
SNU216_STOMACH
  Area under the curve (AUC): 0.6411
SNU245_BILIARY_TRACT
  Area under the curve (AUC): 0.7593
SNU308_BILIARY_TRACT
  Area under the curve (AUC): 0.6306
SNU398_LIVER
  Area under the curve (AUC): 1
SNU407_LARGE_INTESTINE
  Area under the curve (AUC): 0.6585
SNU410_PANCREAS
  Area under the curve (AUC): 0.7436
SNU423_LIVER
  Area under the curve (AUC): 0.737
SNU449_LIVER
  Area under the curve (AUC): 0.8586
SNU466_CENTRAL_NERVOUS_SYSTEM
  Area under the curve (AUC): 0.5354
SNU489_CENTRAL_NERVOUS_SYSTEM
  Area under the curve (AUC): 0.785
SNU601_STOMACH
  Area under the curve (AUC): 0.5691
SNU638_STOMACH
  Area under the curve (AUC): 0.6681
SNU668_STOMACH
  Area under the curve (AUC): 0.6545
  PRISM AUC: 0.3673
SNU685_ENDOMETRIUM
  Area under the curve (AUC): 0.8566
SNU719_STOMACH
  Area under the curve (AUC): 0.5396
SNU761_LIVER
  Area under the curve (AUC): 0.9916
SNU840_OVARY
  Area under the curve (AUC): 0.5807
SNU869_BILIARY_TRACT
  Area under the curve (AUC): 0.586
SNU878_LIVER
  Area under the curve (AUC): 0.7474
SNU886_LIVER
  Area under the curve (AUC): 0.6111
SNU899_UPPER_AERODIGESTIVE_TRACT
  Area under the curve (AUC): 0.3497
SNU1041_UPPER_AERODIGESTIVE_TRACT
  Area under the curve (AUC): 0.5448
SNU1066_UPPER_AERODIGESTIVE_TRACT
  Area under the curve (AUC): 0.6233
SNU1076_UPPER_AERODIGESTIVE_TRACT
  Area under the curve (AUC): 0.4828
SNU1077_ENDOMETRIUM
  Area under the curve (AUC): 0.8899
SNU1079_BILIARY_TRACT
  Area under the curve (AUC): 0.9007
SNU1105_CENTRAL_NERVOUS_SYSTEM
  Area under the curve (AUC): 0.6758
SNU1196_BILIARY_TRACT
  Area under the curve (AUC): 0.9396
SNU1214_UPPER_AERODIGESTIVE_TRACT
  Area under the curve (AUC): 0.4569
SNU1544_LARGE_INTESTINE
  Area under the curve (AUC): 0.6554
SNU2372_BREAST
  Area under the curve (AUC): 0.9941
SNUC2A_LARGE_INTESTINE
  Area under the curve (AUC): 0.9585
SNUC4_LARGE_INTESTINE
  Area under the curve (AUC): 0.7966
SQ1_LUNG
  Area under the curve (AUC): 0.584
SR786_HAEMATOPOIETIC_AND_LYMPHOID_TISSUE
  Area under the curve (AUC): 0.6924
SSP25_BILIARY_TRACT
  Area under the curve (AUC): 0.8438
STM9101_SOFT_TISSUE
  Area under the curve (AUC): 0.9549
SUDHL1_HAEMATOPOIETIC_AND_LYMPHOID_TISSUE
  Area under the curve (AUC): 0.4461
SUDHL4_HAEMATOPOIETIC_AND_LYMPHOID_TISSUE
  Area under the curve (AUC): 0.7862
SUDHL8_HAEMATOPOIETIC_AND_LYMPHOID_TISSUE
  Area under the curve (AUC): 0.977
SUIT2_PANCREAS
  Area under the curve (AUC): 0.7945
SUM149PT_BREAST
  Area under the curve (AUC): 0.4921
SUM159PT_BREAST
  Area under the curve (AUC): 0.7529
SUPB15_HAEMATOPOIETIC_AND_LYMPHOID_TISSUE
  Area under the curve (AUC): 0.6409
SUPT11_HAEMATOPOIETIC_AND_LYMPHOID_TISSUE
  Area under the curve (AUC): 0.9799
SUSA_TESTIS
  Area under the curve (AUC): 0.5526
SW13_ADRENAL_CORTEX
  Area under the curve (AUC): 0.6974
SW156_KIDNEY
  Area under the curve (AUC): 0.986
SW480_LARGE_INTESTINE
  Area under the curve (AUC): 0.4468
SW620_LARGE_INTESTINE
  Area under the curve (AUC): 0.3266
SW626_LARGE_INTESTINE
  Area under the curve (AUC): 0.3595
SW756_CERVIX
  Area under the curve (AUC): 0.4462
SW780_URINARY_TRACT
  Area under the curve (AUC): 0.6339
SW837_LARGE_INTESTINE
  Area under the curve (AUC): 0.6779
  PRISM AUC: 0.5067
SW900_LUNG
  Area under the curve (AUC): 0.55
SW948_LARGE_INTESTINE
  Area under the curve (AUC): 0.498
  PRISM AUC: 0.2935
SW954_CERVIX
  Area under the curve (AUC): 0.5286
SW1088_CENTRAL_NERVOUS_SYSTEM
  Area under the curve (AUC): 0.6827
SW1116_LARGE_INTESTINE
  Area under the curve (AUC): 0.8027
  PRISM AUC: 0.4782
SW1271_LUNG
  Area under the curve (AUC): 0.6501
SW1353_BONE
  Area under the curve (AUC): 0.8863
SW1463_LARGE_INTESTINE
  Area under the curve (AUC): 0.4218
  PRISM AUC: 0.1279
SW1573_LUNG
  Area under the curve (AUC): 0.5448
  PRISM AUC: 0.4695
SW1710_URINARY_TRACT
  Area under the curve (AUC): 0.8106
SW1783_CENTRAL_NERVOUS_SYSTEM
  Area under the curve (AUC): 0.7369
SW1990_PANCREAS
  Area under the curve (AUC): 0.7343
T3M5_THYROID
  Area under the curve (AUC): 0.8637
T3M10_LUNG
  Area under the curve (AUC): 0.8063
T24_URINARY_TRACT
  Area under the curve (AUC): 0.7321
T47D_BREAST
  Area under the curve (AUC): 0.8074
T84_LARGE_INTESTINE
  Area under the curve (AUC): 0.5784
T98G_CENTRAL_NERVOUS_SYSTEM
  Area under the curve (AUC): 0.7924
TALL1_HAEMATOPOIETIC_AND_LYMPHOID_TISSUE
  Area under the curve (AUC): 0.5931
TANOUE_HAEMATOPOIETIC_AND_LYMPHOID_TISSUE
  Area under the curve (AUC): 0.5869
TASK1_CENTRAL_NERVOUS_SYSTEM
  Area under the curve (AUC): 0.8494
TC32_BONE
  Area under the curve (AUC): 0.7126
TC71_BONE
  Area under the curve (AUC): 0.7472
TC106_BONE
  Area under the curve (AUC): 0.7909
TC205_BONE
  Area under the curve (AUC): 0.8134
TCCPAN2_PANCREAS
  Area under the curve (AUC): 0.603
TCCSUP_URINARY_TRACT
  Area under the curve (AUC): 0.6748
TE1_OESOPHAGUS
  Area under the curve (AUC): 0.6956
TE4_OESOPHAGUS
  Area under the curve (AUC): 0.5647
TE5_OESOPHAGUS
  Area under the curve (AUC): 0.5559
TE6_OESOPHAGUS
  Area under the curve (AUC): 0.5629
TE8_OESOPHAGUS
  Area under the curve (AUC): 0.5244
TE10_OESOPHAGUS
  Area under the curve (AUC): 0.6223
TE11_OESOPHAGUS
  Area under the curve (AUC): 0.7749
TE14_OESOPHAGUS
  Area under the curve (AUC): 0.6224
TE15_OESOPHAGUS
  Area under the curve (AUC): 0.2541
TE617T_SOFT_TISSUE
  Area under the curve (AUC): 0.3935
TEN_ENDOMETRIUM
  PRISM AUC: 0.7622
